The assay deals with Flag-USP20 expressed in HCC cells (UniProt Q9Y2K6). In words: affinity purification with mass spectrometry; Flag-USP20 ectopically expressed in HCC cells; immunoprecipitation (IP)-based MS.

Sequences of proteins named here, by UniProt entry; tags and fusion partners are left off.
UniProt Q13535: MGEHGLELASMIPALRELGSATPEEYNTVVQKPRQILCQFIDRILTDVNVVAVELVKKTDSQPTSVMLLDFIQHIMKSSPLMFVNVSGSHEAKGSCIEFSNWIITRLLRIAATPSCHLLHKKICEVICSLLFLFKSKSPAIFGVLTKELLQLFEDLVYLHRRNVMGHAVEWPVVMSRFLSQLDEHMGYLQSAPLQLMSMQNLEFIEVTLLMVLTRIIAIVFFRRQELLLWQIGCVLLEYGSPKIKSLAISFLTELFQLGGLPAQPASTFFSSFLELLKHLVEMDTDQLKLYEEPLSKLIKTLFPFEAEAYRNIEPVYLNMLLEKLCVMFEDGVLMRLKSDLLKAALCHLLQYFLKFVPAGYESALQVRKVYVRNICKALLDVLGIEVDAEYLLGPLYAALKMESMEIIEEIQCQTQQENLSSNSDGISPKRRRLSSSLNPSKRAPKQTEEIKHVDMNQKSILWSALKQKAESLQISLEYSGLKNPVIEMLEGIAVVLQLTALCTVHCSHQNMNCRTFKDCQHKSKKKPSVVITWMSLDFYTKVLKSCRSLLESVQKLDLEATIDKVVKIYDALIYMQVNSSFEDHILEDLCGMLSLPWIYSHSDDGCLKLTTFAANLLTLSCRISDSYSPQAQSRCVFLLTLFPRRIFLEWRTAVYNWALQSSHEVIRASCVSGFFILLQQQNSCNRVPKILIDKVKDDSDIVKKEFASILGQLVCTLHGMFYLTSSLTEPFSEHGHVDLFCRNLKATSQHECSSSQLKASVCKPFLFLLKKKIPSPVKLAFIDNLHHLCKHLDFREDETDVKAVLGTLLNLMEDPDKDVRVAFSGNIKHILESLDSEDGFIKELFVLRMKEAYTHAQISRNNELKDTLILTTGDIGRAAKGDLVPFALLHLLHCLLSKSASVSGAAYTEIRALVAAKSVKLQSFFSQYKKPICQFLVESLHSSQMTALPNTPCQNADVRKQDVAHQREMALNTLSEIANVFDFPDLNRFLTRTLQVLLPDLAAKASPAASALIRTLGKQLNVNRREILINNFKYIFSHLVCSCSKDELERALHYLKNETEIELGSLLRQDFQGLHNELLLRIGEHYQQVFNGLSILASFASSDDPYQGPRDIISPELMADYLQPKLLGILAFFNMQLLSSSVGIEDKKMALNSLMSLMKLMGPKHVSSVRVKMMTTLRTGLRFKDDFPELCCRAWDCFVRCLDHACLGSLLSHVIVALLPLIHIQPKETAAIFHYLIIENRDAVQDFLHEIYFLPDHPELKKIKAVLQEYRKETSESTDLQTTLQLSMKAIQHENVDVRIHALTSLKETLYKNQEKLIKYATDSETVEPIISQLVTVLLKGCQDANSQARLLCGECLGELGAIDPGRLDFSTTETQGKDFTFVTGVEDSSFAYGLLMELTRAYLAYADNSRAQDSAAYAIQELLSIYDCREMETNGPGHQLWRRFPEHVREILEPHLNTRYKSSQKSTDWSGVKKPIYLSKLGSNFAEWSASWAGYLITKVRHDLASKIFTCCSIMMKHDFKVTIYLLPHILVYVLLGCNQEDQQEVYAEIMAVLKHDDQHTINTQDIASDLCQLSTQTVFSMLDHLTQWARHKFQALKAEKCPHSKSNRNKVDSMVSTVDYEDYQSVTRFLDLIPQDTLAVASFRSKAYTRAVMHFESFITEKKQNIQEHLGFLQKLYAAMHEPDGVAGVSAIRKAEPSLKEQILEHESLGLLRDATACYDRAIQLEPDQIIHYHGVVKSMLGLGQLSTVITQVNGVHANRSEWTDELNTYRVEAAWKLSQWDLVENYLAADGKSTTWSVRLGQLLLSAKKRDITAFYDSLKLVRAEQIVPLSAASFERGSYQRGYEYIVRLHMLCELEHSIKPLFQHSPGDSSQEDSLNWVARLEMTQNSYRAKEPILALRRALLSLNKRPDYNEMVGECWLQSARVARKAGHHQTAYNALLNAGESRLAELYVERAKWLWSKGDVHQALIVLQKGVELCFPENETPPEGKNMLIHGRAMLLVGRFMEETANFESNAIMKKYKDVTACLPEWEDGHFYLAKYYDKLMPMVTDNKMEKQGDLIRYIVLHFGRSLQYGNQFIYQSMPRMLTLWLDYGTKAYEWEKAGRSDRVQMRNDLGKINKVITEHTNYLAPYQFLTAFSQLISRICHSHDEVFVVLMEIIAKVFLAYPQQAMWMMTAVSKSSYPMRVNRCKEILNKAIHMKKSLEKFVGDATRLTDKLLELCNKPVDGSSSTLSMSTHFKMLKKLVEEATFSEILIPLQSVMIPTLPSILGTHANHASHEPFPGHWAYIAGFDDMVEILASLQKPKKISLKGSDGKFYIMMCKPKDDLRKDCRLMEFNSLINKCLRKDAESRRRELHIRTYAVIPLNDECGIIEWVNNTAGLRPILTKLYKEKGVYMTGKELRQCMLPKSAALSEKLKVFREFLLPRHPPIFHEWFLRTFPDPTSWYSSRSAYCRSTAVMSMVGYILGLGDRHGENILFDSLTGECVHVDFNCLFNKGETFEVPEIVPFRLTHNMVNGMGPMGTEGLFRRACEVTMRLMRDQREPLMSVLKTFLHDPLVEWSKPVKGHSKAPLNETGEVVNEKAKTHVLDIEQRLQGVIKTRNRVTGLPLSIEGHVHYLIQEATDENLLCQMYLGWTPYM

No constants are given. Whether binding was seen depends on the method and setting. Binding seen in cells or lysates may run through a third protein. A yes stands for co-enrichment or nearness to the bait. Other partners may have been found.

For “ATR, endogenous (from UniProt Q13535 1-2644) (enzyme)”, the binding result is “binds”.

The record behind these values is article PMC10732327.
